Values of other authors as cited in patent US20010016593A1, “Element giving rapid release of nicotine for transmucosal administration” (priority 1999, published 2001).
Read-outs that look alike come from different tables or passages of the source.

Details: scale 0 to 4, cited from earlier work

For CN1CCCC1c1cccnc1 (centres unmarked) [nicotine], the average liking rating (intravenous injection of 1.5 mg) is listed as 0.8 and the average liking rating (intravenous injection of 3 mg) is listed as 2.6.
